# “Also recorded” adds a separate entry of the source. Where two headings read alike, the source gives them in different places.
# What was measured:
# [1] = Removal of sulfide from high H2S water, two oxidation-clarification steps (Example 17)
# [2] = Procedure: Hydrogen peroxide is an inexpensive oxidant for H2S removal, but is slow acting relative to several other oxidants. Shortening the reaction time or contact time required in a water treatment process reduces the volume of contact basins or increases the throughput of a treatment process such as that described in Example 17.
# A portion of the 80 mg/L H2S water was treated by mixing into it a 17% wt/wt solution of hydrogen peroxide such that the molar ratio of hydrogen peroxide to sulfide was about 5.7:1. Hydrogen peroxide was added in excess such that it was not a limiting reagent in the oxidation reaction. The ORP and pH of the water was monitored to track the oxidation rate of H2S. FIG. 3 depicts the progression of ORP and pH over time during oxidation.
# A second portion of the 80 mg/L H2S water was treated by mixing into it a 17% wt/wt solution of hydrogen peroxide such that the molar ratio of hydrogen peroxide to sulfide was about 5.7:1. A small portion of muriatic acid (about 34% hydrochloric acid solution) was added with the hydrogen peroxide to slightly lower the pH to between 6.5 and 7.0 thereby converting at least a portion of the NaHS to H2S and accelerate the reaction rate. FIG. 4 depicts the progression of ORP and pH over time during oxidation.
# [3] = H2S reduction at crude oil rail depot (Example 8); details: about 40 ppm oxidant
# [4] = H2S removal from production well fluids and gas at heater treater and gunbarrel (Example 7)
# [5] = Oxidation of H2S in production water (Example 11, HACH methylene blue method)
# [6] = Gel breaking: depolymerization and break down of guar gum (viscosity); details: guar mixture 10 g/L, 35-40° C.
# [7] = second treatment, about 15 mg/L oxidant, crude oil exiting heater treaters
Compound,"H2S (as S^2−) in supernatant ([1]; first step: 17% hydrogen peroxide, 1.9:1 molar oxidant to sulfide, 10 minutes, aluminum coagulant and anionic polymer, initial 390 mg/L)","pH of supernatant ([1]; first step: hydrogen peroxide 1.9:1, then coagulant and polymer)","hydrogen sulfide in the mixture after oxidation ([2]; hydrogen peroxide 5.7:1, no acid)",hydrogen sulfide in the mixture after oxidation ([2]; hydrogen peroxide 5.7:1 with muriatic acid),hydrogen sulfide concentration in the liquid phase ([3]; crude oil with about 20-30 ppm H2S),"vapor phase potential (e.g., in cargo head space) of hydrogen sulfide ([3]; crude oil, at 140° F.)","Sulfate ([1]; after second step (sodium peracetate 1.6:1), untreated 1000 mg/L) [mg/L]","H2S in supernatant ([1]; second step on hydrogen peroxide-treated supernatant: 2.1% sodium peracetate solution, 1.6:1 molar oxidant to sulfide, 10 minutes, coagulant and polymer)",pH of supernatant ([1]; second step: sodium peracetate 1.6:1 after hydrogen peroxide step),"hydrogen sulfide concentration in the liquid phase ([4]; first treatment, about 50 mg/L oxidant in liquid phase entering heater treaters) [ppm]","hydrogen sulfide concentration in the gas, vapor phase (gas phase) ([4]; first treatment, about 50 mg/L oxidant in liquid phase entering heater treaters, fluids about 30 mg/L H2S)","hydrogen sulfide concentration in the gas, vapor phase [4, 7]","hydrogen sulfide concentration in the liquid phase [4, 7] [ppm]",residual oxidant ([5]; after total dose 360 mg/L sodium peracetate),"final sulfide concentration ([5]; total dose 360 mg/L (3.68 mM) sodium peracetate, initial sulfide 150 mg/L, pH 6.7) [mg/L]","pH after treatment ([5]; total dose 360 mg/L sodium peracetate, initial pH 6.7)",Viscosity at 2 Hour Contact Time ([6]; oxidant conc. 65 mg/L),Viscosity at 2 Hour Contact Time ([6]; oxidant conc. 220 mg/L),Viscosity at 2 Hour Contact Time ([6]; oxidant conc. 440 mg/L)
OO [hydrogen peroxide],about 60 mg/L,7.6,No detectable,No detectable,,,,,,,,,,,,,,,
sodium peracetate [sodium peracetate oxidant solution],,,,,less than 5 ppm,less than 70 ppm,1000,less than 5 mg/L as S′,6.9,≤ 2,less than 70 ppm,less than 10 ppm,≤ 0.1,no residual oxidant,58,7.2,no visible effect on viscosity; also recorded: retained its original viscosity; also recorded: same as initial,small reduction in viscosity; also recorded: slightly reduced,significantly reduce the viscosity; also recorded: rapid loss of viscosity; also recorded: very reduced
